± gives the standard deviation of the averaged measurements. This is a selection; strong and weak results do not stand in their true shares.

The chains behind the UniProt entries cited, without tags or fusion partners. Where a name states a change or a piece, a line headed by the entry shows the natural chain unless it says otherwise.
UniProt P19532: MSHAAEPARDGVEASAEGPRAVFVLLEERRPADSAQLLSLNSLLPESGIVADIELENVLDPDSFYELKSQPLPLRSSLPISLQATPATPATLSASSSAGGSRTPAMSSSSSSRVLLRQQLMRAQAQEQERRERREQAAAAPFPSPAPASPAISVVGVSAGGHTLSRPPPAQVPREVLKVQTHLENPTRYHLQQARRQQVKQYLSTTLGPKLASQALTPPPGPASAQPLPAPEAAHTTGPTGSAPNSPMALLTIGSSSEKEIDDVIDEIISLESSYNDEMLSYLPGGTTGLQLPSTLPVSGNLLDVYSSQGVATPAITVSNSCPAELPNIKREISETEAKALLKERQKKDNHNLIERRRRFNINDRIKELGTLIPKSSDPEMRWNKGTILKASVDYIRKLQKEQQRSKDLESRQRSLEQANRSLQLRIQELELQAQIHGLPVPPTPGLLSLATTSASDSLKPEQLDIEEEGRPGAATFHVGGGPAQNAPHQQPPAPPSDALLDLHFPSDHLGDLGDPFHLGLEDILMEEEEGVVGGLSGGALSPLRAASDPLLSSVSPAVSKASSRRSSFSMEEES
UniProt P18858, whole entry: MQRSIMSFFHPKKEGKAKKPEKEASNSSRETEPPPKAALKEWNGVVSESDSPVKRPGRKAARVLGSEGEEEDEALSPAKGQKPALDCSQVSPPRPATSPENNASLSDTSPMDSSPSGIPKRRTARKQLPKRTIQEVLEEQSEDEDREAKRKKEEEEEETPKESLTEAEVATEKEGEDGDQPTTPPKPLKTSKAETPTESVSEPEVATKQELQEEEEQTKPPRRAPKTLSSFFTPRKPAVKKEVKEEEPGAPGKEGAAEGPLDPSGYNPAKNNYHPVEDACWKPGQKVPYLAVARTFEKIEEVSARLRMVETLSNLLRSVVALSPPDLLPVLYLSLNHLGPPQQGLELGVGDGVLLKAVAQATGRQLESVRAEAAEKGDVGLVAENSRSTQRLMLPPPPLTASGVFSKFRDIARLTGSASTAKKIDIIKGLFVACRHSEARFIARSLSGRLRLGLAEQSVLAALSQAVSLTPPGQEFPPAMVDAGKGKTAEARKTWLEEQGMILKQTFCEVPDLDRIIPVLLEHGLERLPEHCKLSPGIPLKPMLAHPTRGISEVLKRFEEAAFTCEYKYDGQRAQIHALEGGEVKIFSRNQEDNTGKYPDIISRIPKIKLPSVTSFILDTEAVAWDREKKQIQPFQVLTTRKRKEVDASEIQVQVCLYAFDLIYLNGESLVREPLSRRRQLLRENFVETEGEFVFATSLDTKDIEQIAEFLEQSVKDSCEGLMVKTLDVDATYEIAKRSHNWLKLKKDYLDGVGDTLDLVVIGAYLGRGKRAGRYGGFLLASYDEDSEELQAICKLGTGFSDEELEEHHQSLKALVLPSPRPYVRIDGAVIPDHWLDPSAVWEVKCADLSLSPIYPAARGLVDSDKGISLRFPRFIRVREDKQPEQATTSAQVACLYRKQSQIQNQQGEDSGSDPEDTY
UniProt P17568, whole entry: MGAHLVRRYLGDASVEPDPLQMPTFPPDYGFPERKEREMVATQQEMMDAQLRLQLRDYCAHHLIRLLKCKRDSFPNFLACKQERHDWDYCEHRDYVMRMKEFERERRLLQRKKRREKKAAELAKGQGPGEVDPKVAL
UniProt P31150: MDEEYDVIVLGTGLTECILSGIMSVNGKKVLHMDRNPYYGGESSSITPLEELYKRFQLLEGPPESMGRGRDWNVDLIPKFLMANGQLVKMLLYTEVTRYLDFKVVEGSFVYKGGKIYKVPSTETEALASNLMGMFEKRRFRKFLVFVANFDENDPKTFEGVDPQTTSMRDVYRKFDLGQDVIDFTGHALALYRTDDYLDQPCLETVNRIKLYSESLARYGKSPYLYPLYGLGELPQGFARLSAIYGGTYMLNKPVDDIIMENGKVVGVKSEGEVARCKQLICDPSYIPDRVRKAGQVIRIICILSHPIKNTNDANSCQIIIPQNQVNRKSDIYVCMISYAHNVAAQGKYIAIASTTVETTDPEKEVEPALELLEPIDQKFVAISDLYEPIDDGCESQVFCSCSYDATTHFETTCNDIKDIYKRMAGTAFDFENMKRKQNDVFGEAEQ
UniProt P30419: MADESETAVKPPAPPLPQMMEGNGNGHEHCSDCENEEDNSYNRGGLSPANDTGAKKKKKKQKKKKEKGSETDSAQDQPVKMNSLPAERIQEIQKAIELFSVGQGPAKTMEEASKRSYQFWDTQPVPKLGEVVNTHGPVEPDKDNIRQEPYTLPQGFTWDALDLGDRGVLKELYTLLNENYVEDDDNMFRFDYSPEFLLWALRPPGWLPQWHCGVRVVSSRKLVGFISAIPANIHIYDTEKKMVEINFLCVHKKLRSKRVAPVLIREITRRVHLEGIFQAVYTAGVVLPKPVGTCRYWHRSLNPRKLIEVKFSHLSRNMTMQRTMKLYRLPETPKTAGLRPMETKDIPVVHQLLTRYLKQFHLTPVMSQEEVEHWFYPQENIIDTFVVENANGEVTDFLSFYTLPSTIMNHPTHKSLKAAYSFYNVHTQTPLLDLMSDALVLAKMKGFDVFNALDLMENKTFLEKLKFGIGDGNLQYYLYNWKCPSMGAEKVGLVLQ
UniProt P22626: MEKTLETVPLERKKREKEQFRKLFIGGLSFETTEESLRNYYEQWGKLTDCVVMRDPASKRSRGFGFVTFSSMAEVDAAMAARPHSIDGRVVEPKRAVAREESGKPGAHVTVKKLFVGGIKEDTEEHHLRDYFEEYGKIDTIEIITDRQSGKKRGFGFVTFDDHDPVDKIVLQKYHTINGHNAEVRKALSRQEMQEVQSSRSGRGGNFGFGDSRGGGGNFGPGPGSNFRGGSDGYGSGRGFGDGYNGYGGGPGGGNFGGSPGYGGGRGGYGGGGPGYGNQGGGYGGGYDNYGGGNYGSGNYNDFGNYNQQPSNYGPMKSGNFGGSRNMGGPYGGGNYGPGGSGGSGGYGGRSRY
UniProt P21333, whole entry: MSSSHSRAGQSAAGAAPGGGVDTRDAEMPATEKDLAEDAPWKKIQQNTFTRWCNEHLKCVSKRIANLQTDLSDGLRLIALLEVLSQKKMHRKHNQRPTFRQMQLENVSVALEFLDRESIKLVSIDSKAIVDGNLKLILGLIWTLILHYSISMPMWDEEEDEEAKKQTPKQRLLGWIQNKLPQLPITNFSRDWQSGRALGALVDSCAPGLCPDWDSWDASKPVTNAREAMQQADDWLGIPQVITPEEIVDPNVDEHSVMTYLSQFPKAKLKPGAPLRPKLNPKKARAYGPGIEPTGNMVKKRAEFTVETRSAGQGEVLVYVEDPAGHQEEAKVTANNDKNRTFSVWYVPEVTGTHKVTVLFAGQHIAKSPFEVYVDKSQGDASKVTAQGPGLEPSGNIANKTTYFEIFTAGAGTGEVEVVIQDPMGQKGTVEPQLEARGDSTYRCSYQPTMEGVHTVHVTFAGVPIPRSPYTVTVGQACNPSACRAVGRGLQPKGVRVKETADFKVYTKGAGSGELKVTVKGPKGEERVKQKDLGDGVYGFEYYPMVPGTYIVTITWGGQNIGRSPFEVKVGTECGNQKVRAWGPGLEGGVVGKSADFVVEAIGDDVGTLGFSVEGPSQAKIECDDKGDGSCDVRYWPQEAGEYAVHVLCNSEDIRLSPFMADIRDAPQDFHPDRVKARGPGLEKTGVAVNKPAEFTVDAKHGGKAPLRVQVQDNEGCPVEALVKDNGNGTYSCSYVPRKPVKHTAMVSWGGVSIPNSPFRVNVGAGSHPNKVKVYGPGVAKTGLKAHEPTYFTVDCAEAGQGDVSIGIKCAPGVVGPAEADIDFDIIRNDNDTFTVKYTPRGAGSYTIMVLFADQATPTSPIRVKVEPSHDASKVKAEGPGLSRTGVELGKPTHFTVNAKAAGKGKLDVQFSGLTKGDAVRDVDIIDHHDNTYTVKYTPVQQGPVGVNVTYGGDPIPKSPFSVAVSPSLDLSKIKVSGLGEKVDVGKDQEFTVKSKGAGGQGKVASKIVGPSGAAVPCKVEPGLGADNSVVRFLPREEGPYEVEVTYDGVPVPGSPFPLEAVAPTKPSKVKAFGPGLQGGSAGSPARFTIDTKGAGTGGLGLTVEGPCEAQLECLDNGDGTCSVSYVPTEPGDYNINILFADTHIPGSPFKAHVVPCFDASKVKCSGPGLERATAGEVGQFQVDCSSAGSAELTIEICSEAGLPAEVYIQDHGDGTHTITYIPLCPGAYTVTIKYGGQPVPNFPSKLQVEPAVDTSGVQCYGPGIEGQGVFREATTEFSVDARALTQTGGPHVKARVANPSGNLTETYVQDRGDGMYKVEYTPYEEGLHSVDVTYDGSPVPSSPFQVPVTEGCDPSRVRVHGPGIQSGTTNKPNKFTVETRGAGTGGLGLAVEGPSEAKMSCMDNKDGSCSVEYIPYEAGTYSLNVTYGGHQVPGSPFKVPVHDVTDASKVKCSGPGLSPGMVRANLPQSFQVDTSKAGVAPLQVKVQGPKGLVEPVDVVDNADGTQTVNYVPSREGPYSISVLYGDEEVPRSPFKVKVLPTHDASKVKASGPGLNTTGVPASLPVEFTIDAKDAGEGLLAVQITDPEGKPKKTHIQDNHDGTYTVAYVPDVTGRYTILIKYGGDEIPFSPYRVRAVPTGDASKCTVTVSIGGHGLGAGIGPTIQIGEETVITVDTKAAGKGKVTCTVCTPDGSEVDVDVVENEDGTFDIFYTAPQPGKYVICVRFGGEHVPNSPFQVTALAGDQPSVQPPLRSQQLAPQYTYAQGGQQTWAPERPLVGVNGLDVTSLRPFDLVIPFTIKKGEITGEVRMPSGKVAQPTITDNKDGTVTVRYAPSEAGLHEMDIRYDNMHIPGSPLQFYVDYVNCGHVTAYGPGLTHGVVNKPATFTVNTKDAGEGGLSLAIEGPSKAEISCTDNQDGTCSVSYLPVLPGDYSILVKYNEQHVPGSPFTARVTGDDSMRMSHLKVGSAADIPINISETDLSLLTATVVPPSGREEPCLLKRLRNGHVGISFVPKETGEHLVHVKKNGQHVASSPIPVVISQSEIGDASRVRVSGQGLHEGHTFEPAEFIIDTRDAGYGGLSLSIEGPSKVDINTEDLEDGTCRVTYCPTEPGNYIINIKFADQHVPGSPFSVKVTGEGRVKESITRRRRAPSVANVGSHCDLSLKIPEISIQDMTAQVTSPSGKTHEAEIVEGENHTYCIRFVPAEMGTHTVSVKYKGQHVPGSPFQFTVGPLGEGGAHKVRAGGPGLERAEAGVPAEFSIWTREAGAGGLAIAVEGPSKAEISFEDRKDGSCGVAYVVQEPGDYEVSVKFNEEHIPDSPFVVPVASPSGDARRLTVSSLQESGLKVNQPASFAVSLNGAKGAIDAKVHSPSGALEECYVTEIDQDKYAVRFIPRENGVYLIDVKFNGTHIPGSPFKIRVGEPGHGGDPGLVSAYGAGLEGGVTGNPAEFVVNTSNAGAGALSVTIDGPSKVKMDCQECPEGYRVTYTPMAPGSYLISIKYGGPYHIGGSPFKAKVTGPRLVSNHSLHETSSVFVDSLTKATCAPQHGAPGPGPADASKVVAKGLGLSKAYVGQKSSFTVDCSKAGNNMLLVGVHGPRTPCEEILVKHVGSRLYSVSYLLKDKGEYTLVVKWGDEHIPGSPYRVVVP
UniProt P17844: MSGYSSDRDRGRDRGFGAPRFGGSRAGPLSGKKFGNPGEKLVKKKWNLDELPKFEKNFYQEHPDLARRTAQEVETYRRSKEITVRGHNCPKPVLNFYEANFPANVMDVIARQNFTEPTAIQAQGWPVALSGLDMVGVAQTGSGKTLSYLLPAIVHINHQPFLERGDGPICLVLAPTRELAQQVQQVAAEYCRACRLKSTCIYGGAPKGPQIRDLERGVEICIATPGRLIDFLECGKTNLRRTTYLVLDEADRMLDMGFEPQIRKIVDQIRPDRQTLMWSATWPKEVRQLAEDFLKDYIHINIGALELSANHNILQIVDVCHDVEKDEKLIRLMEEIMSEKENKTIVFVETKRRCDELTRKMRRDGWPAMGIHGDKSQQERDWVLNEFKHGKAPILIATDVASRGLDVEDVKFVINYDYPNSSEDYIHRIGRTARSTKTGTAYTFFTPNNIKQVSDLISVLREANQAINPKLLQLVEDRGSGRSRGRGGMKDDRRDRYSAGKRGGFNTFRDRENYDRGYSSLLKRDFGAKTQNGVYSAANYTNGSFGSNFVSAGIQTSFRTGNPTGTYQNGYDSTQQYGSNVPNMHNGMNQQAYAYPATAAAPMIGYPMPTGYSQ
UniProt P21964: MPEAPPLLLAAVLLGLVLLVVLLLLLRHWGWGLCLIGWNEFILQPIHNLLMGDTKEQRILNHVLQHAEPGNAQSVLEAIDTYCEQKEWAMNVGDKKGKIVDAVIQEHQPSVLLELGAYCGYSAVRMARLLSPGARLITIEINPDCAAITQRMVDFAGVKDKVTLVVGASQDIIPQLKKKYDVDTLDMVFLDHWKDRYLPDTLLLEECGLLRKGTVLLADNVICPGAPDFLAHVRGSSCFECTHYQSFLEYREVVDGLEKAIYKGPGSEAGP

This passage reports NP40-soluble protein abundance results from the supplement of paper PMC6411743.

Compound in one test: Nc1ncnc2c1ncn2[C@@H]1O[C@H](COP(=O)(O)OP(=O)(O)OP(=O)(O)O)[C@@H](O)[C@H]1O [adenosine triphosphate]
Nature of the test: NP40-soluble protein abundance relative to vehicle (solubility fold change) (ratio); higher = more soluble protein in presence of ATP. To be noted: concentration: 2mM. The essentials: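 Jurkat crude lysate (Dounce-homogenised) was treated with eight concentrations from 0.1 to 10 mM for 10 min at room temperature, then 3 min at 37 °C. It was solubilised with 0.8% NP40 and benzonase (60 min, 4 °C) and ultracentrifuged, and the supernatant was TMT-labelled for LC-MS/MS. Intensities were vsn-normalised, and the value is the fold change against the NP40-processed vehicle per replicate, from three independent experiments.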
With TFE3 (UniProt P19532), the NP40-soluble protein abundance came out at 0.999 ± 0.084.
Regarding UniProt P18858 and related entries, the NP40-soluble protein abundance came out at 0.971 ± 0.02.
As for NDUFB7 (UniProt P17568), the NP40-soluble protein abundance stood at 0.919 ± 0.073.
As to GDI1 (UniProt P31150), the NP40-soluble protein abundance came out at 1.02 ± 0.081.
For the target NMT1 (UniProt P30419), the NP40-soluble protein abundance amounted to 1.04 ± 0.048.
For HNRNPA2B1 (UniProt P22626), the NP40-soluble protein abundance was 1.04 ± 0.13.
As for ERCC2 (UniProt P18074), the NP40-soluble protein abundance is 1.03 ± 0.087.
As to PRKAR1B (UniProt P31321), the NP40-soluble protein abundance is 1.01 ± 0.048.
As to ATP6V1C1 (UniProt P21283), the NP40-soluble protein abundance amounted to 0.986 ± 0.043.
Consider “UniProt P21333-2|P21333 and related entries”, for which the NP40-soluble protein abundance amounted to 0.953 ± 0.015.
Regarding DDX5 (UniProt P17844), the NP40-soluble protein abundance turned out to be 1.18 ± 0.043.
In the case of UniProt P17041, the NP40-soluble protein abundance stood at 1 ± 0.054.
With UniProt P21964 and related entries, the NP40-soluble protein abundance turned out to be 0.981 ± 0.027.

Staying with this test, now noted: concentration: 4mM.
On to P30042 (UniProt P0DPI2), for which the NP40-soluble protein abundance worked out at 0.936 ± 0.007.
Take M6PR (UniProt P20645): the NP40-soluble protein abundance was 0.9422 ± 0.0066.
Consider HOXB4 (UniProt P17483), for which the NP40-soluble protein abundance stood at 0.96 ± 0.044.
Consider UniProt P32519 and related entries, for which the NP40-soluble protein abundance came out at 0.915 ± 0.016.
In the case of ATP6V1B2 (UniProt P21281), the NP40-soluble protein abundance amounted to 0.978 ± 0.027.
Consider UniProt P32780 and related entries, for which the NP40-soluble protein abundance turned out to be 1.04 ± 0.029.
On the same count and under the same terms, as for UniProt P31327 and related entries, the figure is 1.02 ± 0.077; as for UniProt P23396 and related entries, 0.756 ± 0.081.
On to ZKSCAN1 (UniProt P17029), for which the NP40-soluble protein abundance is 0.879 ± 0.14.
Same read-out and setting: the value for UniProt P22314 and related entries was 0.955 ± 0.034; that for ABCD3 (UniProt P28288) was 1.07 ± 0.096; that for UniProt P18433 and related entries was 1.06 ± 0.14.
Consider AKT1 (UniProt P31749), for which the NP40-soluble protein abundance is 0.991 ± 0.04.
On to UniProt P33981 and related entries, for which the NP40-soluble protein abundance amounted to 1.12 ± 0.019.
Same read-out and setting: the value for UniProt P34897 and related entries was 0.951 ± 0.036.
For UniProt P31948 and related entries, the NP40-soluble protein abundance is 0.911 ± 0.2.
In the case of ACO1 (UniProt P21399), the NP40-soluble protein abundance came out at 0.986 ± 0.058.
As for GOT1 (UniProt P17174), the NP40-soluble protein abundance worked out at 0.922 ± 0.025.
Still for that read-out and setting: the value for IGFBP2 (UniProt P18065) was 1.019 ± 0.0041; that for CBL (UniProt P22681) was 0.99 ± 0.022.
On the same count and under the same terms, as for UniProt P17010 and related entries, the figure is 0.952 ± 0.16.
Turning to UniProt P33316 and related entries, the NP40-soluble protein abundance stood at 0.977 ± 0.026.
Consider RFX1 (UniProt P22670), for which the NP40-soluble protein abundance is 1.01 ± 0.052.
Take UniProt P19793 and related entries: the NP40-soluble protein abundance worked out at 0.932 ± 0.074.
UniProt P32019 and related entries: the NP40-soluble protein abundance came out at 1.02 ± 0.17.
Regarding TFE3 (UniProt P19532), the NP40-soluble protein abundance is 1.04 ± 0.073.
On to UniProt P18858 and related entries, for which the NP40-soluble protein abundance came out at 0.9564 ± 0.0082.
As to NDUFB7 (UniProt P17568), the NP40-soluble protein abundance stood at 0.947 ± 0.097.
For GDI1 (UniProt P31150), the NP40-soluble protein abundance came to 1.01 ± 0.06.
As for NMT1 (UniProt P30419), the NP40-soluble protein abundance was found to be 1.06 ± 0.016.
Turning to HNRNPA2B1 (UniProt P22626), the NP40-soluble protein abundance is 1.04 ± 0.13.
Regarding ERCC2 (UniProt P18074), the NP40-soluble protein abundance came out at 1.08 ± 0.053.
With PRKAR1B (UniProt P31321), the NP40-soluble protein abundance came out at 1.03 ± 0.014.
Turning to ATP6V1C1 (UniProt P21283), the NP40-soluble protein abundance turned out to be 0.966 ± 0.03.
As for “UniProt P21333-2|P21333 and related entries”, the NP40-soluble protein abundance is 0.907 ± 0.023.
Regarding DDX5 (UniProt P17844), the NP40-soluble protein abundance is 1.07 ± 0.3.
Consider UniProt P17041, for which the NP40-soluble protein abundance came out at 0.968 ± 0.021.
In the case of UniProt P21964 and related entries, the NP40-soluble protein abundance stood at 0.938 ± 0.04.

The test is the same for the next values; noted with them: concentration: 6mM.
P30042 (UniProt P0DPI2): the NP40-soluble protein abundance came out at 0.982 ± 0.053.
On to M6PR (UniProt P20645), for which the NP40-soluble protein abundance was 0.934 ± 0.039.
Take HOXB4 (UniProt P17483): the NP40-soluble protein abundance came to 0.934 ± 0.043.
Consider UniProt P32519 and related entries, for which the NP40-soluble protein abundance is 0.974 ± 0.048.
With ATP6V1B2 (UniProt P21281), the NP40-soluble protein abundance was found to be 0.993 ± 0.013.
The same measure, in the same setting: as for UniProt P32780 and related entries, the figure is 1.08 ± 0.019; as for UniProt P31327 and related entries, 0.98 ± 0.086.
As for UniProt P23396 and related entries, the NP40-soluble protein abundance is 0.694 ± 0.062.
Consider ZKSCAN1 (UniProt P17029), for which the NP40-soluble protein abundance is 0.883 ± 0.16.
Consider UniProt P22314 and related entries, for which the NP40-soluble protein abundance stood at 0.947 ± 0.068.
Still for that read-out and setting: the value for ABCD3 (UniProt P28288) was 0.975 ± 0.11.
Still for that read-out and setting: as for UniProt P18433 and related entries, the figure is 0.987 ± 0.097; as for AKT1 (UniProt P31749), 0.963 ± 0.1; as for UniProt P33981 and related entries, 1.11 ± 0.024.
With UniProt P34897 and related entries, the NP40-soluble protein abundance is 0.92 ± 0.061.
For the target UniProt P31948 and related entries, the NP40-soluble protein abundance came out at 0.986 ± 0.099.
As to ACO1 (UniProt P21399), the NP40-soluble protein abundance is 0.942 ± 0.088.
With GOT1 (UniProt P17174), the NP40-soluble protein abundance came to 0.932 ± 0.088.
For the target IGFBP2 (UniProt P18065), the NP40-soluble protein abundance stood at 1.01 ± 0.024.
On the same count and under the same terms, the value for CBL (UniProt P22681) was 0.993 ± 0.032.
The same measure, in the same setting: as for UniProt P17010 and related entries, the figure is 0.978 ± 0.085.
For the target UniProt P33316 and related entries, the NP40-soluble protein abundance was 1 ± 0.03.
Regarding RFX1 (UniProt P22670), the NP40-soluble protein abundance is 0.948 ± 0.052.
Regarding UniProt P19793 and related entries, the NP40-soluble protein abundance worked out at 0.943 ± 0.088.
With UniProt P32019 and related entries, the NP40-soluble protein abundance was 0.925 ± 0.12.
As for TFE3 (UniProt P19532), the NP40-soluble protein abundance amounted to 0.961 ± 0.013.
Turning to UniProt P18858 and related entries, the NP40-soluble protein abundance worked out at 0.961 ± 0.036.
The same measure, in the same setting: the value for NDUFB7 (UniProt P17568) was 1.02 ± 0.075; that for GDI1 (UniProt P31150) was 0.98 ± 0.11; that for NMT1 (UniProt P30419) was 1.12 ± 0.064.
For the target HNRNPA2B1 (UniProt P22626), the NP40-soluble protein abundance came out at 1.19 ± 0.28.
On the same count and under the same terms, as for ERCC2 (UniProt P18074), the figure is 1.02 ± 0.087; as for PRKAR1B (UniProt P31321), 1.06 ± 0.066; as for ATP6V1C1 (UniProt P21283), 0.979 ± 0.052.
The same measure, in the same setting: the value for “UniProt P21333-2|P21333 and related entries” was 0.972 ± 0.021.
In the case of DDX5 (UniProt P17844), the NP40-soluble protein abundance came out at 1.51 ± 0.19.
The same measure, in the same setting: the value for UniProt P17041 was 0.873 ± 0.049; that for UniProt P21964 and related entries was 0.964 ± 0.062.
